The other results are listed elsewhere or left out. Many values rest on one well or one pass, so single values are uncertain.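 The apoptosis fraction was the count of cleaved-PARP antibody-stained nuclei relative to all DNA-stained nuclei, imaged in 1,536-well plates. Screening doses were set so most cells survived, and baseline and induced cleaved-PARP levels vary greatly across cell lines.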
Assays:
Experiment in all cases: cleaved PARP positive nuclei fraction relative to DMSO control; melanoma cells; higher = more apoptosis
Conditions in all cases: library dose: low library concentration; 72 h
501Mel = tested on: 501Mel
A101D = tested on: A101D
A2058 = tested on: A2058
A375 = tested on: A375
C32 = tested on: C32
CBRC008 = tested on: CBRC008 (line from a melanoma biopsy)
CBRC013 = tested on: CBRC013 (line from a melanoma biopsy)
CBRC014 = tested on: CBRC014 (line from a melanoma biopsy)
CBRC016 = tested on: CBRC016 (line from a melanoma biopsy)
CBRC017 = tested on: CBRC017 (line from a melanoma biopsy)
COLO792 = tested on: COLO792
COLO800 = tested on: COLO800
COLO829 = tested on: COLO829
G361 = tested on: G361
IPC-298 = tested on: IPC-298
IST-MEL1 = tested on: IST-MEL1
LB2518-MEL = tested on: LB2518-MEL
LOXIMVI = tested on: LOXIMVI
MEL-HO = tested on: MEL-HO

| Structure (SMILES) | cleaved PARP positive nuclei fraction (501Mel) [%] | cleaved PARP positive nuclei fraction (A101D) [%] | cleaved PARP positive nuclei fraction (A2058) [%] | cleaved PARP positive nuclei fraction (A375) [%] | cleaved PARP positive nuclei fraction (C32) [%] | cleaved PARP positive nuclei fraction (CBRC008) [%] | cleaved PARP positive nuclei fraction (CBRC013) [%] | cleaved PARP positive nuclei fraction (CBRC014) [%] | cleaved PARP positive nuclei fraction (CBRC016) [%] | cleaved PARP positive nuclei fraction (CBRC017) [%] | cleaved PARP positive nuclei fraction (COLO792) [%] | cleaved PARP positive nuclei fraction (COLO800) [%] | cleaved PARP positive nuclei fraction (COLO829) [%] | cleaved PARP positive nuclei fraction (G361) [%] | cleaved PARP positive nuclei fraction (IPC-298) [%] | cleaved PARP positive nuclei fraction (IST-MEL1) [%] | cleaved PARP positive nuclei fraction (LB2518-MEL) [%] | cleaved PARP positive nuclei fraction (LOXIMVI) [%] | cleaved PARP positive nuclei fraction (MEL-HO) [%] |
| --- | --- | --- | --- | --- | --- | --- | --- | --- | --- | --- | --- | --- | --- | --- | --- | --- | --- | --- | --- |
| CC1(C)CCC(c2ccc(Cl)cc2)=C(CN2CCN(c3ccc(C(=O)NS(=O)(=O)c4ccc(N[C@H](CCN5CCOCC5)CSc5ccccc5)c(S(=O)(=O)C(F)(F)F)c4)cc3)CC2)C1 + CO[C@@H]1[C@H](N(C)C(=O)c2ccccc2)C[C@H]2O[C@]1(C)n1c3ccccc3c3c4c(c5c6ccccc6n2c5c31)C(=O)NC4 [Midostaurin] (first compound 0.4 µM, partner dose 0.08 µM) | 96 | 304 | 163 | 375 | 494 | 979 | 95.8 | 454 | 740 | 334 | 841 | 124 | 87 | 217 | 128 | 148 | 147 | 126 | 91.7 |
| NC(=O)c1ccc(N(C(N)=O)c2c(F)cccc2F)nc1-c1ccc(F)cc1F + Cc1ccc(NC(=O)c2cccc(N(C)C)c2)cc1NC(=O)c1ccc(O)cc1 [ZM336372] (first compound 0.4 µM, partner dose 2 µM) | 75.3 | 86.3 | 74.7 | 195 | 46 | 169 | 79.7 | 96.6 | 112 | 92.5 | 92 | 108 | 89.3 | 113 | 125 | 102 | 107 | 85 | 76.2 |
| C[C@@H](N)c1ccc(C(=O)Nc2ccnc3[nH]ccc23)cc1 + OCCn1cc(-c2cnc3nnn(Cc4ccc5ncccc5c4)c3n2)cn1 [PF04217903] (first compound 0.4 µM, partner dose 1 µM) | 78.1 | 132 | 79.9 | 187 | 52.5 | 34.2 | 102 | 139 | 176 | 161 | 124 | 22.7 | 54.7 | 93.3 | 58.1 | 34.5 | 163 | 219 | 43.6 |
| NC1(c2ccc(-c3nc4ccn5c(=O)[nH]nc5c4cc3-c3ccccc3)cc2)CCC1 + O=C(CCCCCCC(=O)Nc1ccccc1)NO [vorinostat] (first compound 0.4 µM, partner dose 0.08 µM) | 93.5 | 166 | 131 | 60.2 | 45.1 | 55.8 | 89.8 | 76 | 152 | 89.8 | 112 | 86.3 | 146 | 118 | 44.9 | 51.7 | 137 | 51 | 84.9 |
| C[C@@H](N)c1ccc(C(=O)Nc2ccnc3[nH]ccc23)cc1 + C=CCn1c(=O)c2cnc(Nc3ccc(N4CCN(C)CC4)cc3)nc2n1-c1cccc(C(C)(C)O)n1 [MK1775] (first compound 0.4 µM, partner dose 0.02 µM) | 78.4 | 102 | 97.5 | 59.9 | 77 | 156 | 122 | 108 | 196 | 101 | 150 | 84.9 | 130 | 129 | 22.7 | 102 | 68.7 | 481 | 171 |
| CC(=O)O[C@@]12CO[C@@H]1C[C@H](O)[C@@]1(C)C(=O)[C@H](O)C3=C(C)[C@@H](OC(=O)[C@H](O)[C@@H](NC(=O)OC(C)(C)C)c4ccccc4)C[C@@](O)([C@@H](OC(=O)c4ccccc4)[C@H]21)C3(C)C [Docetaxel] + CC1(C)NC(=O)N(c2ccc([N+](=O)[O-])c(C(F)(F)F)c2)C1=O [nilutamide] (first compound 0.0001 µM, partner dose 1 µM) | 122 | 194 | 5040 | 12300 | 338 | 200 | 95.3 | 167 | 201 | 162 | 548 | 342 | 484 | 752 | 193 | 94.1 | 71.6 | 133 | 159 |
| Cn1sc(=O)n(Cc2ccccc2)c1=O + COc1cc2c(Oc3ccc4[nH]c(C)cc4c3F)ncnc2cc1OCCCN1CCCC1 [cediranib] (first compound 0.4 µM, partner dose 0.4 µM) | 77.9 | 40.8 | 32.4 | 74.5 | 74.9 | 115 | 93.4 | 83 | 78 | 95.8 | 35.5 | 47.9 | 95.6 | 35.2 | 66 | 85 | 41.2 | 112 | 120 |
| CCCCCCCCc1ccc(CCC(N)(CO)CO)cc1 [fingolimod] + NC(=O)Nc1cc(-c2cccc(F)c2)sc1C(=O)N[C@H]1CCCNC1 [AZD7762] (first compound 2 µM, partner dose 0.02 µM) | 146 | 162 | 23 | 2180 | 348 | 115 | 73.2 | 162 | 97.3 | 105 | 78.9 | 105 | 176 | 78.1 | 114 | 104 | 121 | 93.1 | 215 |
| COc1ccc(C2=N[C@@H](c3ccc(Cl)cc3)[C@@H](c3ccc(Cl)cc3)N2C(=O)N2CCNC(=O)C2)c(OC(C)C)c1 [Nutlin-3] + NCC(=O)Nc1ccc(-n2nc(C(F)(F)F)cc2-c2ccc3c(ccc4ccccc43)c2)cc1 [OSU03012] (first compound 0.1 µM, partner dose 1 µM) | 178 | 123 | 156 | 3140 | 141 | 488 | 101 | 95.7 | 300 | 113 | 114 | 235 | 78.5 | 163 | 108 | 145 | 48 | 63.2 | 29.9 |
| C[C@@H](N)c1ccc(C(=O)Nc2ccnc3[nH]ccc23)cc1 + COc1cc(Nc2ncc(F)c(Nc3ccc4c(n3)NC(=O)C(C)(C)O4)n2)cc(OC)c1OC [Tamatinib] (first compound 0.4 µM, partner dose 0.4 µM) | 102 | 105 | 88.9 | 136 | 101 | 269 | 129 | 104 | 187 | 92.1 | 365 | 63 | 160 | 130 | 115 | 87.8 | 288 | 410 | 98.7 |
| NC(=O)c1ccc(N(C(N)=O)c2c(F)cccc2F)nc1-c1ccc(F)cc1F + CN(C)S(=O)(=O)c1ccc2c(c1)/C(=C/c1cc3c([nH]1)CCCC3)C(=O)N2 [SU6656] (first compound 0.4 µM, partner dose 0.4 µM) | 74.8 | 56.5 | 62.6 | 347 | 113 | 45 | 82.2 | 125 | 44.6 | 119 | 292 | 133 | 105 | 72.2 | 91.7 | 97.8 | 97.7 | 64.2 | 61.9 |
| CS(=O)(=O)c1ccc(C(=O)Nc2ccc(Cl)c(-c3ccccn3)c2)c(Cl)c1 [vismodegib] + OCCn1cc(-c2cnc3nnn(Cc4ccc5ncccc5c4)c3n2)cn1 [PF04217903] (first compound 1 µM, partner dose 1 µM) | 47.6 | 70 | 59.6 | 95.6 | 59.7 | 120 | 123 | 82.4 | 279 | 64.2 | 95.9 | 97.8 | 138 | 72.6 | 23.3 | 49.8 | 125 | 298 | 33.7 |
| NC(=O)c1ccc(N(C(N)=O)c2c(F)cccc2F)nc1-c1ccc(F)cc1F + Cn1cncc1[C@@](N)(c1ccc(Cl)cc1)c1ccc2c(c1)c(-c1cccc(Cl)c1)cc(=O)n2C [tipifarnib] (first compound 0.4 µM, partner dose 0.01 µM) | 97.6 | 84.4 | 67 | 113 | 163 | 55.3 | 128 | 94 | 132 | 114 | 228 | 93.8 | 103 | 58.9 | 46.7 | 102 | 368 | 51.2 | 73.9 |
| NC1(c2ccc(-c3nc4ccn5c(=O)[nH]nc5c4cc3-c3ccccc3)cc2)CCC1 + Cn1cncc1[C@@](N)(c1ccc(Cl)cc1)c1ccc2c(c1)c(-c1cccc(Cl)c1)cc(=O)n2C [tipifarnib] (first compound 0.4 µM, partner dose 0.01 µM) | 232 | 122 | 91.2 | 92.8 | 40.3 | 250 | 150 | 92.8 | 213 | 302 | 370 | 85.9 | 160 | 149 | 94.8 | 153 | 240 | 202 | 83 |
| NC(=O)c1ccc(N(C(N)=O)c2c(F)cccc2F)nc1-c1ccc(F)cc1F + CN(NC(=O)CC(=O)NN(C)C(=S)c1ccccc1)C(=S)c1ccccc1 [STA4783] (first compound 0.4 µM, partner dose 0.006 µM) | 200 | 94.2 | 38.1 | 4620 | 170 | 2820 | 182 | 689 | 225 | 218 | 194 | 82.5 | 91.5 | 61 | 22.9 | 165 | 271 | 56 | 68 |
| Cn1sc(=O)n(Cc2ccccc2)c1=O + C=CCn1c(=O)c2cnc(Nc3ccc(N4CCN(C)CC4)cc3)nc2n1-c1cccc(C(C)(C)O)n1 [MK1775] (first compound 0.4 µM, partner dose 0.02 µM) | 59 | 99.7 | 87.4 | 83.7 | 47.1 | 63.2 | 88.1 | 116 | 36.2 | 123 | 63.4 | 107 | 89.9 | 88.7 | 178 | 41 | 103 | 40.4 | 248 |
| Cn1sc(=O)n(Cc2ccccc2)c1=O + O=C(CCCCCCC(=O)Nc1ccccc1)NO [vorinostat] (first compound 0.4 µM, partner dose 0.08 µM) | 103 | 39.4 | 97.3 | 24.8 | 129 | 122 | 98.2 | 94.9 | 89.2 | 86.5 | 71.4 | 42.1 | 74.3 | 20.1 | 95.6 | 58.7 | 88.7 | 59.1 | 227 |

Three neighbouring records from above:

| Structure (SMILES) | cleaved PARP positive nuclei fraction (501Mel) [%] | cleaved PARP positive nuclei fraction (A101D) [%] | cleaved PARP positive nuclei fraction (A2058) [%] | cleaved PARP positive nuclei fraction (A375) [%] | cleaved PARP positive nuclei fraction (C32) [%] | cleaved PARP positive nuclei fraction (CBRC008) [%] | cleaved PARP positive nuclei fraction (CBRC013) [%] | cleaved PARP positive nuclei fraction (CBRC014) [%] | cleaved PARP positive nuclei fraction (CBRC016) [%] | cleaved PARP positive nuclei fraction (CBRC017) [%] | cleaved PARP positive nuclei fraction (COLO792) [%] | cleaved PARP positive nuclei fraction (COLO800) [%] | cleaved PARP positive nuclei fraction (COLO829) [%] | cleaved PARP positive nuclei fraction (G361) [%] | cleaved PARP positive nuclei fraction (IPC-298) [%] | cleaved PARP positive nuclei fraction (IST-MEL1) [%] | cleaved PARP positive nuclei fraction (LB2518-MEL) [%] | cleaved PARP positive nuclei fraction (LOXIMVI) [%] | cleaved PARP positive nuclei fraction (MEL-HO) [%] |
| --- | --- | --- | --- | --- | --- | --- | --- | --- | --- | --- | --- | --- | --- | --- | --- | --- | --- | --- | --- |
| C[C@@H](N)c1ccc(C(=O)Nc2ccnc3[nH]ccc23)cc1 + COc1cc(Nc2ncc(F)c(Nc3ccc4c(n3)NC(=O)C(C)(C)O4)n2)cc(OC)c1OC [Tamatinib] (first compound 0.4 µM, partner dose 0.4 µM) | 102 | 105 | 88.9 | 136 | 101 | 269 | 129 | 104 | 187 | 92.1 | 365 | 63 | 160 | 130 | 115 | 87.8 | 288 | 410 | 98.7 |
| NC(=O)c1ccc(N(C(N)=O)c2c(F)cccc2F)nc1-c1ccc(F)cc1F + CN(C)S(=O)(=O)c1ccc2c(c1)/C(=C/c1cc3c([nH]1)CCCC3)C(=O)N2 [SU6656] (first compound 0.4 µM, partner dose 0.4 µM) | 74.8 | 56.5 | 62.6 | 347 | 113 | 45 | 82.2 | 125 | 44.6 | 119 | 292 | 133 | 105 | 72.2 | 91.7 | 97.8 | 97.7 | 64.2 | 61.9 |
| CS(=O)(=O)c1ccc(C(=O)Nc2ccc(Cl)c(-c3ccccn3)c2)c(Cl)c1 [vismodegib] + OCCn1cc(-c2cnc3nnn(Cc4ccc5ncccc5c4)c3n2)cn1 [PF04217903] (first compound 1 µM, partner dose 1 µM) | 47.6 | 70 | 59.6 | 95.6 | 59.7 | 120 | 123 | 82.4 | 279 | 64.2 | 95.9 | 97.8 | 138 | 72.6 | 23.3 | 49.8 | 125 | 298 | 33.7 |

Reference: the supplement of paper PMC4604168 (melanoma cell lines)
